Measured values published in publication PMC11914185.

Sequences of proteins named here, by UniProt entry; tags and fusion partners are left off.
UniProt Q9HCK8: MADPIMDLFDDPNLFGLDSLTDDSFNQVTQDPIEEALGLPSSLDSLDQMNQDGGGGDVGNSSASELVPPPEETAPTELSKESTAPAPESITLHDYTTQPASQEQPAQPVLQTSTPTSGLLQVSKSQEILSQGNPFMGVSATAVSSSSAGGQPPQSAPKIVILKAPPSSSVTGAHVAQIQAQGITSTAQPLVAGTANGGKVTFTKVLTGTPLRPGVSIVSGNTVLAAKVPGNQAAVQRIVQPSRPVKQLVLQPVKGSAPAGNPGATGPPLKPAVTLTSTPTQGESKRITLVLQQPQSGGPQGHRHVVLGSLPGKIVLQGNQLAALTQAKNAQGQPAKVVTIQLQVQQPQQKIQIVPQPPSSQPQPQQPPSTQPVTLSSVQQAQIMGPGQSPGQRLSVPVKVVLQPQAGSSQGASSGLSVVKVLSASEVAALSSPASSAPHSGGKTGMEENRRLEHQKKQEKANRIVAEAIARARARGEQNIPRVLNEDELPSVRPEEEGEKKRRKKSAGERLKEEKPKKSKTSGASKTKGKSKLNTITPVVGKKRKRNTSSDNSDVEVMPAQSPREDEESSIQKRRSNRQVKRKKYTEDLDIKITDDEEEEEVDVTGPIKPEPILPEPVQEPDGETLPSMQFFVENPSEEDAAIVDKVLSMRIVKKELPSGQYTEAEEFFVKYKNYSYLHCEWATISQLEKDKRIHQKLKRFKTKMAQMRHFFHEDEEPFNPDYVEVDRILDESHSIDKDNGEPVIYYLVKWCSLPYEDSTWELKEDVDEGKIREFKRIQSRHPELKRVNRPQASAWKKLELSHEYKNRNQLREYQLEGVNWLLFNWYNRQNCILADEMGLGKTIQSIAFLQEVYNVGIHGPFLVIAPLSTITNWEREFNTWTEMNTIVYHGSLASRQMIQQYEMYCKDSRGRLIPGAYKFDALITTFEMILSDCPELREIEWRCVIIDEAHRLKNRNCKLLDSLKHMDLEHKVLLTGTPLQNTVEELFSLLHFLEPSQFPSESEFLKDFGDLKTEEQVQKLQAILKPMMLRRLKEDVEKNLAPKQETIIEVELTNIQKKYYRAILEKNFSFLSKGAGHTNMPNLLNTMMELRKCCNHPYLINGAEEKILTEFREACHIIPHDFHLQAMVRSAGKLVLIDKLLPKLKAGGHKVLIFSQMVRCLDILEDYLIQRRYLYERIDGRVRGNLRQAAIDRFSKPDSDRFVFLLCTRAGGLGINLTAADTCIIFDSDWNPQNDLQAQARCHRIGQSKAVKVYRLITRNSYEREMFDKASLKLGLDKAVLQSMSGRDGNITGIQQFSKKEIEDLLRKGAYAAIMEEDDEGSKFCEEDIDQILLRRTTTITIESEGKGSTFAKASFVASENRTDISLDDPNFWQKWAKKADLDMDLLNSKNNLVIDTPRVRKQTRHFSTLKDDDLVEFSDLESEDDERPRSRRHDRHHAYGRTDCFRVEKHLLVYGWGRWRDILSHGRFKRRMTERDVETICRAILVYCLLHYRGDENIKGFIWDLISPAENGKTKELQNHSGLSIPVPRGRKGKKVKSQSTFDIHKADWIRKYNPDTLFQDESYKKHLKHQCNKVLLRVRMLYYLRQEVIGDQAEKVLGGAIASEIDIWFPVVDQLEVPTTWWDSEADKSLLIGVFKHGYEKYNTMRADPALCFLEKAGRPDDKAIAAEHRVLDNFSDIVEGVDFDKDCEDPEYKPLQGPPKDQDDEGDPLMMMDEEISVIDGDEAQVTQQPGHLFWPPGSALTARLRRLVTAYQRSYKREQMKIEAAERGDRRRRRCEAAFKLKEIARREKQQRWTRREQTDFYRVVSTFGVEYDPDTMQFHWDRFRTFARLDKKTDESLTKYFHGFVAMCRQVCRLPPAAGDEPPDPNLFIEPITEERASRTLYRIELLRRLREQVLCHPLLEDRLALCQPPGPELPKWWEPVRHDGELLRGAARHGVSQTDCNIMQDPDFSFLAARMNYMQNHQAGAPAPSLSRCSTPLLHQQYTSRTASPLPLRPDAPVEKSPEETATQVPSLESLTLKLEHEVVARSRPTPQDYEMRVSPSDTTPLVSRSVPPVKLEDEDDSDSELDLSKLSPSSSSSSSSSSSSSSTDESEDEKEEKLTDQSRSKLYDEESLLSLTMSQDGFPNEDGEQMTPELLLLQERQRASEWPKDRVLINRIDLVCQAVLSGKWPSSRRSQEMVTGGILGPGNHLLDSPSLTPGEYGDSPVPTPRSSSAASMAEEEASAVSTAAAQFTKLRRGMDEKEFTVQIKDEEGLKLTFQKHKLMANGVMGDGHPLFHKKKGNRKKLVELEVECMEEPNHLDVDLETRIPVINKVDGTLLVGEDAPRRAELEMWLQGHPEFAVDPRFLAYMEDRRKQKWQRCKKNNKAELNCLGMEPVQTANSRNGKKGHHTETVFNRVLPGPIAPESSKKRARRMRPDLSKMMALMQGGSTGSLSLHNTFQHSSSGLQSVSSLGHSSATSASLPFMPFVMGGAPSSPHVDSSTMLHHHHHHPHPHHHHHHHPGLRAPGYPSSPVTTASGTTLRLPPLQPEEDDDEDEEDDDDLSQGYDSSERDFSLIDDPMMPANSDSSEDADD
UniProt Q9NPF5: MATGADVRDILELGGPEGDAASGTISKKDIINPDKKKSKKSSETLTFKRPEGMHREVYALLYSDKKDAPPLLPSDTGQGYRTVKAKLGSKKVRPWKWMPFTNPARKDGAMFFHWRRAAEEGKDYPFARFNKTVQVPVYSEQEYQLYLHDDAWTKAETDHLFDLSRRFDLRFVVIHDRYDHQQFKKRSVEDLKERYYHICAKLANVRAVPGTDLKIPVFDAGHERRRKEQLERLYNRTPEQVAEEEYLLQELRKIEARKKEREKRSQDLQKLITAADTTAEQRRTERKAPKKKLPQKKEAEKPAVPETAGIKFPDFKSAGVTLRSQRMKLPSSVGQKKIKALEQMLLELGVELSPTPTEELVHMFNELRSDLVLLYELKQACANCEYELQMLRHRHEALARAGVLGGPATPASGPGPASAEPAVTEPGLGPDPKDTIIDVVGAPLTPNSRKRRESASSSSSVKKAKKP
UniProt Q96L91: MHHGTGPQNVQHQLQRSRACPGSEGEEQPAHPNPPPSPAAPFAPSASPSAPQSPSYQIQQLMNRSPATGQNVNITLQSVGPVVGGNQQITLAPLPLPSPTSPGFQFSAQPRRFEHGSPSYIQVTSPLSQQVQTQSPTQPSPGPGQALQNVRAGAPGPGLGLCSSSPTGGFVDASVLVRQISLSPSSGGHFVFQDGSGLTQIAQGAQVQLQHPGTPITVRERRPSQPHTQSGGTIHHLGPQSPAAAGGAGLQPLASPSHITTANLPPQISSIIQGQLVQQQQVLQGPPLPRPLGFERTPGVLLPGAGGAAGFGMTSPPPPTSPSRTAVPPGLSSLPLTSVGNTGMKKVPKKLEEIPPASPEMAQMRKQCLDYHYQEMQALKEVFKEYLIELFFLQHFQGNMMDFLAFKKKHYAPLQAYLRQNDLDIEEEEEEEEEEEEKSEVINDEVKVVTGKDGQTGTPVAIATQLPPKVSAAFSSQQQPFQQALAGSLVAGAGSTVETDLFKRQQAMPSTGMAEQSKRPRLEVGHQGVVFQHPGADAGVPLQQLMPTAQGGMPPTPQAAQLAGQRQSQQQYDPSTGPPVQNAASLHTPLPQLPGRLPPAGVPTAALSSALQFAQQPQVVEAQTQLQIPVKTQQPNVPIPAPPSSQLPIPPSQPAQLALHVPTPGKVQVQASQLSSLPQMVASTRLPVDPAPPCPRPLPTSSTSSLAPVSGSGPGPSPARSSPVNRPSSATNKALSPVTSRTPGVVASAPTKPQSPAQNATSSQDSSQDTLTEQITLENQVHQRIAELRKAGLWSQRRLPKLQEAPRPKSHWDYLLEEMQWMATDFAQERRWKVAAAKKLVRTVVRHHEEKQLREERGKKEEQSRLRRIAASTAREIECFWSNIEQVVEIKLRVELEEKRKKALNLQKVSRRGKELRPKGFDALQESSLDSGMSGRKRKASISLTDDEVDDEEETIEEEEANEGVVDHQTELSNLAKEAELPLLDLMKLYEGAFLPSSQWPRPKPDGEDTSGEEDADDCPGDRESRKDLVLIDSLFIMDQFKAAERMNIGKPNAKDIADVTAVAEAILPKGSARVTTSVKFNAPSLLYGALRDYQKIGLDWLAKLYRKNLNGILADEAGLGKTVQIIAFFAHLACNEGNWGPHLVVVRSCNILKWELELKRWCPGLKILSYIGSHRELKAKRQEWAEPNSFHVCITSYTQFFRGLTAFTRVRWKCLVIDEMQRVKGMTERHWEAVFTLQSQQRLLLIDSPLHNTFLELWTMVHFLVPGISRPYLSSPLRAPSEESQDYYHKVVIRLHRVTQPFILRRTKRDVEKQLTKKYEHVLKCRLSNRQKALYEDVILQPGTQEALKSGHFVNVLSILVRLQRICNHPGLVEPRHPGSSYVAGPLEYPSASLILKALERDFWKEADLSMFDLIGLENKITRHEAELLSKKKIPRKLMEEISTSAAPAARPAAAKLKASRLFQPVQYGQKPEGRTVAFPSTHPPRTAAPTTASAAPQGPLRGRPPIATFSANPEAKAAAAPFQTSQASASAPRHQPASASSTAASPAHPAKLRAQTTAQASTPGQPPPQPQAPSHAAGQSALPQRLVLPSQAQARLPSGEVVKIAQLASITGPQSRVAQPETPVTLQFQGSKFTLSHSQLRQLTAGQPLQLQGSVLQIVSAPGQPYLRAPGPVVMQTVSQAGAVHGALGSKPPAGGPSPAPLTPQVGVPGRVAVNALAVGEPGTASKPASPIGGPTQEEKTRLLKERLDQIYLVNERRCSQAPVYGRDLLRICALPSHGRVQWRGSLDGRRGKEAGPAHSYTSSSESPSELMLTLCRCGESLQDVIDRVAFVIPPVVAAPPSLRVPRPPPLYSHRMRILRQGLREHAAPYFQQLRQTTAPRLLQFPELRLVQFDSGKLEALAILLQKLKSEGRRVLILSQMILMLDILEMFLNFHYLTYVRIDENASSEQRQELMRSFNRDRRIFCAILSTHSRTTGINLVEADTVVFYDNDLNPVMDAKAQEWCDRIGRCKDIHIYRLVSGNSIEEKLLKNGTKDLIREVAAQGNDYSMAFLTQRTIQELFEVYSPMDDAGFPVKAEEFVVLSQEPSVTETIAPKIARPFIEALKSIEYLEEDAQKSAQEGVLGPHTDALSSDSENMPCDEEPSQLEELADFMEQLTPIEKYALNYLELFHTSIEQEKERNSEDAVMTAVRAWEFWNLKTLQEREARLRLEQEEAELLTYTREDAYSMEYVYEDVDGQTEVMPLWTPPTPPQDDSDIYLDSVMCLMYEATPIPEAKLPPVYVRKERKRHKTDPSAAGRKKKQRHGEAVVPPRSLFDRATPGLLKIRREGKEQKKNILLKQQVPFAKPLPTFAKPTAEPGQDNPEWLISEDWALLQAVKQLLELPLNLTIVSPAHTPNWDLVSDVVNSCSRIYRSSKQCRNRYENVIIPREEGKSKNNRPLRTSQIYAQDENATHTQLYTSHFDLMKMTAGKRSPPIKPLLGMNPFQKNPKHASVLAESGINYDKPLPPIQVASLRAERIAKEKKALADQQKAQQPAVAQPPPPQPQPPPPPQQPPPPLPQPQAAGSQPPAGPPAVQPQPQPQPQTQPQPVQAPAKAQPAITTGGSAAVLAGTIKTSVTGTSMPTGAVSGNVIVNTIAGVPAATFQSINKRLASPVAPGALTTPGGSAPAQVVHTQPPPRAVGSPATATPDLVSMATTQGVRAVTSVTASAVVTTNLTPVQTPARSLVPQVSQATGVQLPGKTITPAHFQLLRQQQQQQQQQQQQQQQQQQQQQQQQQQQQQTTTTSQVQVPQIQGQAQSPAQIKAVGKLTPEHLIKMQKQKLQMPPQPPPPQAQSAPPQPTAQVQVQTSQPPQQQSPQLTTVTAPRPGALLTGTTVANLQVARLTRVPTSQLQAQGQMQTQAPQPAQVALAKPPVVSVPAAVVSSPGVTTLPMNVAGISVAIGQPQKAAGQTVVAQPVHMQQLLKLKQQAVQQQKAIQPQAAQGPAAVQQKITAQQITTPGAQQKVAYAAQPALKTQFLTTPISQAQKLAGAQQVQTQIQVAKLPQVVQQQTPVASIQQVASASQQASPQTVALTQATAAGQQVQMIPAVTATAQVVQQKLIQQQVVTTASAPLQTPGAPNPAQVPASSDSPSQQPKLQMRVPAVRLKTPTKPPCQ
UniProt Q9UBU8: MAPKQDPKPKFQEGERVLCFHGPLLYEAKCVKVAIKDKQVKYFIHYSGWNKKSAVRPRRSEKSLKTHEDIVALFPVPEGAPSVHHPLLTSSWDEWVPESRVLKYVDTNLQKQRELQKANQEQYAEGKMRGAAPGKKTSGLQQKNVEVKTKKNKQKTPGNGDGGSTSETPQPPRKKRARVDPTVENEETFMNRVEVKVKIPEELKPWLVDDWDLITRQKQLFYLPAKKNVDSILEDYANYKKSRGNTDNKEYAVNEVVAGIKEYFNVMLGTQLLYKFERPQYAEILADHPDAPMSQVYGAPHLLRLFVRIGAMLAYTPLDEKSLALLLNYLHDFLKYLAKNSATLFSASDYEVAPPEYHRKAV

B1: ZNF143 (protein, UniProt P52747 1-638)
chain: MLLAQINRDSQGMTEFPGGGMEAQHVTLCLTEAVTVADGDNLENMEGVSLQAVTLADGSTAYIQHNSKDAKLIDGQVIQLEDGSAAYVQHVPIPKSTGDSLRLEDGQAVQLEDGTTAFIHHTSKDSYDQSALQAVQLEDGTTAYIHHAVQVPQSDTILAIQADGTVAGLHTGDATIDPDTISALEQYAAKVSIDGSESVAGTGMIGENEQEKKMQIVLQGHATRVTAKSQQSGEKAFRCEYDGCGKLYTTAHHLKVHERSHTGDRPYQCEHAGCGKAFATGYGLKSHVRTHTGEKPYRCSEDNCTKSFKTSGDLQKHIRTHTGERPFKCPFEGCGRSFTTSNIRKVHVRTHTGERPYYCTEPGCGRAFASATNYKNHVRIHTGEKPYVCTVPGCDKRFTEYSSLYKHHVVHTHSKPYNCNHCGKTYKQISTLAMHKRTAHNDTEPIEEEQEAFFEPPPGQGEDVLKGSQITYVTGVEGDDVVSTQVATVTQSGLSQQVTLISQDGTQHVNISQADMQAIGNTITMVTQDGTPITVPAHDAVISSAGTHSVAMVTAEGTEGEQVAIVAQDLAAFHTASSEMGHQQHSHHLVTTETRPLTLVATSNGTQIAVQLGEQPSLEEAIRIASRIQQGETPGLDD

Each molecule was assayed against F-CHD8 (Chromodomain helicase DNA-binding protein 8 with a double FLAG tag and a V5 tag at the C-terminus, knocked into both alleles) (human (endogenous in hNSCs)) (UniProt Q9HCK8) (assay: affinity purification with mass spectrometry; anti-FLAG M2 agarose beads on 1.5 ml dialyzed nuclear extract of F-CHD8 hNSCs (control hNSCs as control), 3 h at 4°C with 225 units Benzonase, buffer C-100* (20 mM Hepes pH 7.6, 100 mM KCl, 0.02% NP40), eluted with FLAG-tripeptide; three independent purifications; MASCOT and MaxQuant analyses).
BRD8 (from UniProt Q9H0E9 1-1235) was tested, and the binding was “binds”.
With CHD7 (from UniProt Q9P2D1 1-2997) the binding was “binds”.
With DMAP1 (from UniProt Q9NPF5 1-467) the binding was “binds”.
In the case of EP400 (from UniProt Q96L91 1-3159), the binding is reported as “binds”.
EPC1 (from UniProt Q9H2F5 1-836) was tested, and the binding was “binds”.
With EPC2 (from UniProt Q52LR7 1-807) the binding was “binds”.
With ING3 (from UniProt Q9NXR8 1-418) the binding was “binds”.
KAT5 (from UniProt Q92993 1-513) was tested, and the binding was “binds”.
MBTD1 (from UniProt Q05BQ5 1-628) was tested, and the binding was “binds”.
For MORF4L1 (from UniProt Q9UBU8 1-362), the binding was “binds”.
For MYCBP2 (from UniProt O75592 1-4678), the binding was “binds”.
RUVBL1 (from UniProt Q9Y265 1-456) was tested, and the binding was “binds”.
With TRRAP (from UniProt Q9Y4A5 1-3859) the binding was “binds”.
With YEATS4 (from UniProt O95619 1-227) the binding was “binds”.
With B1 the binding was “binds”.

These are yes or no findings as the source states them, for the method shown. In cells and extracts the contact can be indirect. A yes stands for co-enrichment or nearness to the bait. Other partners may have been found.
